PubChem BioAssay AID1259308, NCATS – 2017

- Assay: 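Genes whose loss raises luciferase production in HEK293 cells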 (primary screen)
- Cells: human HEK293 embryonic kidney cells stably expressing firefly luciferase (HEK-CMV-Luc2-Hygro)
- Knock-down reagent: single siRNA against human genes, 0.8 pmol siRNA per well
- Duration: 72 h
- Measurement: 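Reporter luminescence and viable-cell signal on separate replicate plates, given as percent of non-targeting control and median/MAD z-scores, plus per-cell luciferase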
- Scale: total luciferase, z-score and total luciferase, % of control: higher = more reporter protein produced; luciferase per cell, z-score: higher = more reporter output per viable cell; viable cells, % of control: higher = more viable cells
- Call rule: 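An siRNA counts as active if its total luciferase robust z-score exceeds 3; genes with two or more such siRNAs out of three were retested with fresh siRNAs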
- Calls: active = raised luciferase; inactive = no rise
This is a random part of about 59,000 reagents. About 1,510 of them (2.6%) count as active. 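Calls use total luciferase alone and ignore viability, so some active siRNAs may act by altering cell number.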 Reagents against one gene are numbered here. Reagent sequences are not shown.

gene symbol,reagent,"total luciferase, z-score","total luciferase, % of control","luciferase per cell, z-score","viable cells, % of control",call
GP5 (glycoprotein V platelet),1,0.739,96.6,0.033,107,inactive
GP5 (glycoprotein V platelet),2,0.218,86.2,-0.15,100,inactive
GP5 (glycoprotein V platelet),3,1.78,117,1.34,92.2,inactive
EIF5A2 (eukaryotic translation initiation factor 5A2),1,0.109,84.1,0.975,72.7,inactive
EIF5A2 (eukaryotic translation initiation factor 5A2),2,-1.43,53.5,-0.582,69.6,inactive
EIF5A2 (eukaryotic translation initiation factor 5A2),3,-0.426,73.4,-0.733,99.5,inactive
GJB7 (gap junction protein beta 7),1,0.121,84.3,-0.372,104,inactive
GJB7 (gap junction protein beta 7),2,-0.245,77,-0.951,111,inactive
GJB7 (gap junction protein beta 7),3,1.56,113,1.62,82.3,inactive
GJB7 (gap junction protein beta 7),4,-0.0264,81.4,0.188,86.5,inactive
GJB7 (gap junction protein beta 7),5,1.46,111,1.22,89.8,inactive
GJB7 (gap junction protein beta 7),6,0.253,86.9,-0.217,103,inactive
ANAPC2 (anaphase promoting complex subunit 2),1,-1.23,57.4,-0.996,83.4,inactive
ANAPC2 (anaphase promoting complex subunit 2),2,-1.4,54.1,-0.729,73.3,inactive
ANAPC2 (anaphase promoting complex subunit 2),3,-1.27,56.6,-1.29,88.8,inactive
FBXO30 (F-box protein 30),1,0.492,91.7,0.928,80.2,inactive
FBXO30 (F-box protein 30),2,1.04,103,0.663,96.3,inactive
FBXO30 (F-box protein 30),3,-0.61,69.8,-0.735,94.6,inactive
ZNF208 (zinc finger protein 208),1,-0.414,73.7,-0.134,85.3,inactive
ZNF208 (zinc finger protein 208),2,0.685,95.5,0.738,87.9,inactive
ZNF208 (zinc finger protein 208),3,0.488,91.6,0.396,92.2,inactive
TRAF7 (TNF receptor associated factor 7),1,0.383,89.5,0.791,81.2,inactive
TRAF7 (TNF receptor associated factor 7),2,-0.138,79.1,-0.499,101,inactive
TRAF7 (TNF receptor associated factor 7),3,-0.249,76.9,-1.01,112,inactive

Part of the list above, set out differently:
GP5 (glycoprotein V platelet) #1
- total luciferase, z-score: 0.739
- total luciferase, % of control: 96.6
- luciferase per cell, z-score: 0.033
- viable cells, % of control: 107
- call: inactive

GP5 (glycoprotein V platelet) #2
- total luciferase, z-score: 0.218
- total luciferase, % of control: 86.2
- luciferase per cell, z-score: -0.15
- viable cells, % of control: 100
- call: inactive
